The other results are listed elsewhere or left out.
Compound: CC1Cc2ccccc2N1C(=O)C1CCCN(C1)C(=O)CCl (mixture of isomers) [TRIM25 ligand 11 (diastereomer mixture)]
Assay: probe-labelled cysteine peptide fold change vs DMSO (competition) (log2 fold change); higher = less target engagement (more negative = stronger competition)
Details: THP-1, incubation time: 4 h
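Also: competitive chemoproteomic profiling in live THP-1 cells with an iodoacetamide desthiobiotin (IA-DTB) probe, comparing probe-labelled peptide intensities in compound-treated cells against DMSO-treated controls.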

Sequences of proteins named here, by UniProt entry; tags and fusion partners are left off. A change or cut given only in a name is not applied to a line headed by its entry.
UniProt P78527, whole entry, looked up: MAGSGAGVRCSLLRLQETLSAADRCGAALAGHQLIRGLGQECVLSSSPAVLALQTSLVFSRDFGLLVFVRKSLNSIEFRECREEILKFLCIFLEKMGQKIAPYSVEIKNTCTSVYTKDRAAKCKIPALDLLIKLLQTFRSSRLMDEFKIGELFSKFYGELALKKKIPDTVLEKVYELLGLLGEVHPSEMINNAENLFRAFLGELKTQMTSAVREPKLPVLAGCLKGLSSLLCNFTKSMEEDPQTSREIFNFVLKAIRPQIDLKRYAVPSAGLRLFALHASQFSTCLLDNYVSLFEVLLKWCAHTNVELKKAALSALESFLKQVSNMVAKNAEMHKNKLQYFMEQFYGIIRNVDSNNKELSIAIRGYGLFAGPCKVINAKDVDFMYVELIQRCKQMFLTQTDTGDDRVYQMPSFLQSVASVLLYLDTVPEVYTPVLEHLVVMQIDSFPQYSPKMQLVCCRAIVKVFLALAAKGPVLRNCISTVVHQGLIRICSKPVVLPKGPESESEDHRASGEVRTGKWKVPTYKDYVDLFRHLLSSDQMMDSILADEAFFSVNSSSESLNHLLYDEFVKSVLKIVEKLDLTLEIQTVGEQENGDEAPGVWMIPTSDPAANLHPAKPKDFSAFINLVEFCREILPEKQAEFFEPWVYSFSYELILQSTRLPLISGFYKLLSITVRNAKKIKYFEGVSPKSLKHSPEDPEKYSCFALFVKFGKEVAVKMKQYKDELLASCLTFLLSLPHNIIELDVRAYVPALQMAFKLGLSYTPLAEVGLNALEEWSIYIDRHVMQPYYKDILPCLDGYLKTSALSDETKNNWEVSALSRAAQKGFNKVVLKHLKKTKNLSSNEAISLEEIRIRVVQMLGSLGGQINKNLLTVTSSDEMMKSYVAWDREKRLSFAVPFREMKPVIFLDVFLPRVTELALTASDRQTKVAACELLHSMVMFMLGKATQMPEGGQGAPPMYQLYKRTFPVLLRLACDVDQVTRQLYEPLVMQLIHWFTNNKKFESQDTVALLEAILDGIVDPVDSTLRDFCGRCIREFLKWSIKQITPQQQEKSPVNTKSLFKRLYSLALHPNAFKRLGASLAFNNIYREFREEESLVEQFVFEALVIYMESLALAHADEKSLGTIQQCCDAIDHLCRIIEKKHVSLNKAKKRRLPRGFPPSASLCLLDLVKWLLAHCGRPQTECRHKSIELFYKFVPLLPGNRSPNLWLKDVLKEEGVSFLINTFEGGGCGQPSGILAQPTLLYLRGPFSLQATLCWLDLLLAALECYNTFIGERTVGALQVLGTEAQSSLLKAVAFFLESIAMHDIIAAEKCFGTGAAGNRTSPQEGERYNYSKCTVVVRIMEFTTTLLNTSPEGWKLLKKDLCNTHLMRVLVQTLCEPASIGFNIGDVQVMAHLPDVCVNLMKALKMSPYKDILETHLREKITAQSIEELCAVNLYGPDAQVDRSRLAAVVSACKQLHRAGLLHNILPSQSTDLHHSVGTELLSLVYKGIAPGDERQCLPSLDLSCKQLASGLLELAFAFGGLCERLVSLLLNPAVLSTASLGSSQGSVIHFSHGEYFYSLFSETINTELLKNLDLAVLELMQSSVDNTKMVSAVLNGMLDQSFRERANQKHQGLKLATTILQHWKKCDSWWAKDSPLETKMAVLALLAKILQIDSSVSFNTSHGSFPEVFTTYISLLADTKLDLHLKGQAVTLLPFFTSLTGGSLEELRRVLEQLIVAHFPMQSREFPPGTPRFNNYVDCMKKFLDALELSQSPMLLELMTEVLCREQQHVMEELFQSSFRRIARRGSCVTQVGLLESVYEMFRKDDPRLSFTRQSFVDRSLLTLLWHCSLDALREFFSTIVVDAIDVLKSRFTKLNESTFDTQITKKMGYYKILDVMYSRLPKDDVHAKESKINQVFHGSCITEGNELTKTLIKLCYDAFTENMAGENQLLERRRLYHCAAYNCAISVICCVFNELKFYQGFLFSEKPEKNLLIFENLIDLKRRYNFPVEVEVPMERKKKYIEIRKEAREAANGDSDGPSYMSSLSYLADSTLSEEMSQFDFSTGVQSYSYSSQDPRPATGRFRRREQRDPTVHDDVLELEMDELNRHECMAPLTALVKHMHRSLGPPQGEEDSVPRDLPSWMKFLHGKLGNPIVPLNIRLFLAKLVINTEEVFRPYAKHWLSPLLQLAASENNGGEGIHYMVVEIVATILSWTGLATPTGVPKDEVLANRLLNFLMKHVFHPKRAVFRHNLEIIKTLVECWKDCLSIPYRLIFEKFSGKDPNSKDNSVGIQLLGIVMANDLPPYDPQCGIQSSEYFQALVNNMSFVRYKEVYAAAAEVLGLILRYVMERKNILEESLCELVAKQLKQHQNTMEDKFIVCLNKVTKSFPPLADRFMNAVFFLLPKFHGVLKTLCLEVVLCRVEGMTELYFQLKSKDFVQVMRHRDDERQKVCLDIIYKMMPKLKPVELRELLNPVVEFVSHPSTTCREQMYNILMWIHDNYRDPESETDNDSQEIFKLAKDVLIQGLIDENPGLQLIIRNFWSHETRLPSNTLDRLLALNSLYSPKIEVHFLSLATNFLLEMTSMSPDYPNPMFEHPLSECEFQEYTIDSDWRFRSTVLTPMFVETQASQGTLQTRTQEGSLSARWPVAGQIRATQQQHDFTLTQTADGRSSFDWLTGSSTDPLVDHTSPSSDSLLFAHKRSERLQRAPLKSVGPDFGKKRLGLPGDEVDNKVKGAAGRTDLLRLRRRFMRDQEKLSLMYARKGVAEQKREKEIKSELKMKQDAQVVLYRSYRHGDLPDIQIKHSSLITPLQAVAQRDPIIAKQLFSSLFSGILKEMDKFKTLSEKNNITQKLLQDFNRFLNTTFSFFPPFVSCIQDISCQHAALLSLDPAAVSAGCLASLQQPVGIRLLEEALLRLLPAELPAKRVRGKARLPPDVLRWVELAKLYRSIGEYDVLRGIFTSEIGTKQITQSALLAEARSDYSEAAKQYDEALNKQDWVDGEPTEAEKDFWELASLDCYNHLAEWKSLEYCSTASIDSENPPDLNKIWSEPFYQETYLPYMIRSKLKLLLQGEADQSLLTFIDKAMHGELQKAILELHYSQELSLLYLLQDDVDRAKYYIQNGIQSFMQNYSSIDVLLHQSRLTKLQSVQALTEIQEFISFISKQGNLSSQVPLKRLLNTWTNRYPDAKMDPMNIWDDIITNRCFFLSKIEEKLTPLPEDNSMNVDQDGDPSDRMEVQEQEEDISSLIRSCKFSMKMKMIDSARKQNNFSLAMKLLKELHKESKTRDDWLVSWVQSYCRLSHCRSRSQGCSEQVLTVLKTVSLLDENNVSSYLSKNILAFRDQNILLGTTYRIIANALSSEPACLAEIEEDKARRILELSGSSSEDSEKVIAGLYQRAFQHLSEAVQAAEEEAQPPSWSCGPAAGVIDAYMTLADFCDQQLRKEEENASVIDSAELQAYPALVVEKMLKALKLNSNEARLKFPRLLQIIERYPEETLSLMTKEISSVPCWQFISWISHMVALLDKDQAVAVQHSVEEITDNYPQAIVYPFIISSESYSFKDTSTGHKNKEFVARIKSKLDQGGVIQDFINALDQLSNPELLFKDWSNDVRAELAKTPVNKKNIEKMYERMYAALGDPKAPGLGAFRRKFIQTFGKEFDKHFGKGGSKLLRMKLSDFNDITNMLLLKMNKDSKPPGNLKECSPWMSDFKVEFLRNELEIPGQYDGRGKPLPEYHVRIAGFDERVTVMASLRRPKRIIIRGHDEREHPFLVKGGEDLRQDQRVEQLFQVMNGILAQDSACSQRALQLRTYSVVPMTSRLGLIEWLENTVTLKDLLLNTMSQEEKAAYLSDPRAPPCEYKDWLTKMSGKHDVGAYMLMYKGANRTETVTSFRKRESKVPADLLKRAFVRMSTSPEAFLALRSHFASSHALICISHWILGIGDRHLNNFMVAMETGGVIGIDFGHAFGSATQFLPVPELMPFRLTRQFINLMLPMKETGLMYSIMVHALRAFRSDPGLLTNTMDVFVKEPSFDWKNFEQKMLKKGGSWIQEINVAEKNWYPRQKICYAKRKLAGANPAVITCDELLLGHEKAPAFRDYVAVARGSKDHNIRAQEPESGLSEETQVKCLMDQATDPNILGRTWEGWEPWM
UniProt O43172: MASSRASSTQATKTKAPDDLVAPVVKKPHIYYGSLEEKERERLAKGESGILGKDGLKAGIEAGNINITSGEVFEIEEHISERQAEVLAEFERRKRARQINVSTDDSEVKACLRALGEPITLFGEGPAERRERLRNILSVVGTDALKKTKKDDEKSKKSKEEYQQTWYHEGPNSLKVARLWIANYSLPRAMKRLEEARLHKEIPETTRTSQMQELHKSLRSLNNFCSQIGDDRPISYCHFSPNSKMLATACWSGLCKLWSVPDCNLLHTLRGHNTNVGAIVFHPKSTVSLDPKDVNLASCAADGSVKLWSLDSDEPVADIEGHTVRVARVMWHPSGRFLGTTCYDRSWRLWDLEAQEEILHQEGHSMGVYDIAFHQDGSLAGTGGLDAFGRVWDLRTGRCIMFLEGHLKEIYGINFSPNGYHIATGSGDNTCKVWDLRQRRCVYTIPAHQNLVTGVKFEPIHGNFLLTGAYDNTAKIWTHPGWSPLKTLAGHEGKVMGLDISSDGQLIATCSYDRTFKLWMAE
UniProt Q6P2P2: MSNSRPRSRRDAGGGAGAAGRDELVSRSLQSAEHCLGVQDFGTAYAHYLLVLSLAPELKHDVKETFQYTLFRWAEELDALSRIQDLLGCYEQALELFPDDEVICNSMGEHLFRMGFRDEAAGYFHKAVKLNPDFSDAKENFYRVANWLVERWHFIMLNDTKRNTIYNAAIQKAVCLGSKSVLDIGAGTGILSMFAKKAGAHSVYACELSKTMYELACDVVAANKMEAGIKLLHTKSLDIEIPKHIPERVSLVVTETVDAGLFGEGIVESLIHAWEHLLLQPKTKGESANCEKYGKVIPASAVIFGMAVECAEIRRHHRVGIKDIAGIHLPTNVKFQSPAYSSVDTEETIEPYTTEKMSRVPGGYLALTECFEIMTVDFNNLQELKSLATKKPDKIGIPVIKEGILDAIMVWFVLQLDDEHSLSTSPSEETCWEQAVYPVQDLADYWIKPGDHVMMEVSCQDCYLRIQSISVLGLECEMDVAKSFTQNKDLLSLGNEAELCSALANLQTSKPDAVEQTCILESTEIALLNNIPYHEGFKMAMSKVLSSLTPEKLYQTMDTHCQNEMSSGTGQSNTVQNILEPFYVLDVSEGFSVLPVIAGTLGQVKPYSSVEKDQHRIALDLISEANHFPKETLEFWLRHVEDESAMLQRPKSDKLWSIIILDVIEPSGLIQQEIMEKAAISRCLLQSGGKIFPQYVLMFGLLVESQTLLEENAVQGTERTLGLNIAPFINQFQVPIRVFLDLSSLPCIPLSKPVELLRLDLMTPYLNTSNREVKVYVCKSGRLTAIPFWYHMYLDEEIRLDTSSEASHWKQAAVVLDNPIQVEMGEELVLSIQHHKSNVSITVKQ
UniProt Q9BZL6: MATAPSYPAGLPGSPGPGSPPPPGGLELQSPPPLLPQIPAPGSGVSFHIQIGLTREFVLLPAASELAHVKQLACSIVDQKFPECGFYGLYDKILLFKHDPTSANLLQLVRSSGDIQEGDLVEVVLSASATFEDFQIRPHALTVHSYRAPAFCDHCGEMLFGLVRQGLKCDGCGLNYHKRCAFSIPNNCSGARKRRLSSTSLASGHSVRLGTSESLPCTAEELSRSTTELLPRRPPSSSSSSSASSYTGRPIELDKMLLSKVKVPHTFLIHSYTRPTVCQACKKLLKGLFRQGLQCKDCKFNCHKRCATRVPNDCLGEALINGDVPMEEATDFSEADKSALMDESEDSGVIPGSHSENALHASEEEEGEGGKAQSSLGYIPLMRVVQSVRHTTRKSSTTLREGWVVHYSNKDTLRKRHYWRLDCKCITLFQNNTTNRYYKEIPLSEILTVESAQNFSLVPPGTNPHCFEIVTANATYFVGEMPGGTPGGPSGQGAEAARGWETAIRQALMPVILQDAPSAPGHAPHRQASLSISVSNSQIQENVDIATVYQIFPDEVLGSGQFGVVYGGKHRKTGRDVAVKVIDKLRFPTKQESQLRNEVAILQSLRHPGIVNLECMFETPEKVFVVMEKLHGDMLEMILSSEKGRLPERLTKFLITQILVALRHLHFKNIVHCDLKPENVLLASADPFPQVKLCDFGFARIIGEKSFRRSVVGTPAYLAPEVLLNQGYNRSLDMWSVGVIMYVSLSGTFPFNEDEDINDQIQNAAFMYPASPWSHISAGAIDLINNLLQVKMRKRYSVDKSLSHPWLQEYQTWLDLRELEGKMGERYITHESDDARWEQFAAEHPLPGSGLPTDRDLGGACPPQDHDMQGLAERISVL

Row | Target | probe-labelled cysteine peptide fold change (10 µM) | probe-labelled cysteine peptide fold change (50 µM)
1 | PRKDC_P78527_1791_RGSCVTQVGLLESVYEMFR (UniProt P78527) | -0.133 | -0.498
2 | PRMT5_O14744_622_VWYEWAVTAPVCSAIHNPTGR (UniProt O14744) | 0.323 | 0.371
3 | PREX1_Q8TCU6_936_IACYQEFAAQLK (UniProt Q8TCU6) | 0.0577 | 0.0706
4 | PRPF4_O43172_263_LWSVPDCNLLHTLR (UniProt O43172) | 0.135 | 0.175
5 | PRKCD_Q05655_175_NHEFIATFFGQPTFCSVCK (UniProt Q05655) | -0.0362 | 0.249
6 | PRKDC_P78527_1127+1128_SLGTIQQCCDAIDHLCR (UniProt P78527) | 0.269 | -0.018
7 | PRTN3_P24158_56_GNPGSHFCGGTLIHPSFVLTAAHCLR (UniProt P24158) | -0.0261 | -0.123
8 | PRKDC_P78527_1176_WLLAHCGRPQTECR (UniProt P78527) | -0.0994 | 0.0666
9 | PRKAA1_Q13131_425_SQSRPNDIMAEVCR (UniProt Q13131) | -0.101 | -0.0314
10 | PRPF8_Q6P2Q9_2116_KFICISDLR (UniProt Q6P2Q9) | -0.00497 | 0.0232
11 | PRPF19_Q9UMS4_16_SLICSISNEVPEHPCVSPVSNHVYER (UniProt Q9UMS4) | -0.133 | -0.447
12 | PRMT9_Q6P2P2_290_GESANCEK (UniProt Q6P2P2) | 0.0447 | -0.0688
13 | PREX1_Q8TCU6_1221_LHGCLEHLFNQVDSINALLK (UniProt Q8TCU6) | 0.11 | 0.0646
14 | PRPF6_O94906_550+558_HTWMEDADSCVAHNALECAR (UniProt O94906) | -0.165 | -0.0822
15 | PRMT1_Q99873-3_15_AAAEAANCIMEVSCGQAESSEKPNAEDMTSK (UniProt Q99873) | -0.221 | 0.0812
16 | PREX1_Q8TCU6_52_LCVLNEILGTERDYVGTLR (UniProt Q8TCU6) | -0.286 | -0.113
17 | PRMT5_O14744_344_CLLDRVPEEEK (UniProt O14744) | -0.0494 | -0.00756
18 | PRKDC_P78527_3347_IIANALSSEPACLAEIEEDK (UniProt P78527) | 0.033 | 0.0495
19 | PRKD2_Q9BZL6_217_LGTSESLPCTAEELSR (UniProt Q9BZL6) | 0.0353 | -0.104
20 | PRKCB_P05771_409_VLALPGKPPFLTQLHSCFQTMDR (UniProt P05771) | 0.0299 | 0.0865
21 | PRKAR1A_P10644_39_DSIVQLCTARPER (UniProt P10644) | -0.11 | -0.000615
22 | PRKCA_P17252_132_CDTCDMNVHK (UniProt P17252) | -0.0656 | -0.048
23 | PREX1_Q8TCU6_1583_LGACQMVMCGTGMQR (UniProt Q8TCU6) | 0.0674 | -0.0805
24 | PRPF3_O43395_651_QCPTENMAR (UniProt O43395) | -0.219 | -0.185
25 | PRKDC_P78527_1742_FNNYVDCMK (UniProt P78527) | 0.122 | 0.0251
26 | PRPF4_O43172_399_CIMFLEGHLK (UniProt O43172) | -0.0298 | 0.125
27 | PRMT9_Q6P2P2_683_CLLQSGGK (UniProt Q6P2P2) | 0.0456 | 0.107

Row | Target | probe-labelled cysteine peptide fold change (10 µM) | probe-labelled cysteine peptide fold change (50 µM)
28 | PRKDC_P78527_3293_SQGCSEQVLTVLK (UniProt P78527) | 0.0201 | 0.00989
29 | PREX1_Q8TCU6_1314_CTDTELQLR (UniProt Q8TCU6) | 0.177 | 0.248
30 | PRKCB_P05771_386_DVVIQDDDVECTMVEK (UniProt P05771) | 0.158 | 0.0628
31 | PRUNE1_Q86TP1_303_QLAIFCPHVALQTTICEVLER (UniProt Q86TP1) | -0.049 | 0.0158
32 | PRKDC_P78527_2093_HECMAPLTALVK (UniProt P78527) | -0.0134 | -0.111
33 | PRKCB_P05771_132_CDTCMMNVHK (UniProt P05771) | -0.0421 | -0.0709
34 | PRKCB_P05771_78_CHEFVTFSCPGADK (UniProt P05771) | 0.126 | 0.232
35 | PRKCI_P41743_108+117_DSELLIHVFPCVPERPGMPCPGEDK (UniProt P41743) | -0.204 | -0.207
36 | PRMT3_O60678_53_QQTPCLFCNR (UniProt O60678) | 0.032 | -0.0779
37 | PRKD3_O94806_204_IPNNCSGVR (UniProt O94806) | 0.0623 | 0.248
38 | PRR14L_Q5THK1_650_VESECVLNQQVSLNSQEHANLPTDSLLHLNK (UniProt Q5THK1) | -0.176 | -0.356
39 | PRKDC_P78527_3781_VEQLFQVMNGILAQDSACSQR (UniProt P78527) | 0.102 | 0.0405
40 | PRMT7_Q9NVM4_136_HSTEVTVGPEGDMPCR (UniProt Q9NVM4) | -0.0661 | -0.198
41 | PRKRA_O75569_54_NIPVYECER (UniProt O75569) | -0.0869 | -0.0232
42 | PRMT3_O60678_67_LFTSAEETFSHCK (UniProt O60678) | 0.0629 | 0.0643
43 | PRKDC_P78527_1127_SLGTIQQCCDAIDHLCR (UniProt P78527) | 0.0972 | -0.138
44 | PRKD2_Q9BZL6_169_CDGCGLNYHK (UniProt Q9BZL6) | -0.0537 | 0.065
45 | PRPS2_P11908_226+230_VAILVDDMADTCGTICHAADK (UniProt P11908) | 0.0546 | 0.237
46 | PRMT9_Q6P2P2_747_VFLDLSSLPCIPLSKPVELLR (UniProt Q6P2P2) | -0.26 | -0.0643
47 | PRPF19_Q9UMS4_298_IWSVPNASCVQVVR (UniProt Q9UMS4) | 0.00818 | 0.0267
48 | PRKDC_P78527_4061_KLAGANPAVITCDELLLGHEK (UniProt P78527) | -0.131 | -0.00312
49 | PRUNE1_Q86TP1_303+313_QLAIFCPHVALQTTICEVLER (UniProt Q86TP1) | 0.352 | -0.178
50 | PRKDC_P78527_478_NCISTVVHQGLIR (UniProt P78527) | 0.0438 | 0.143
51 | PRKAB1_Q9Y478_223_DTGISCDPALLPEPNHVMLNHLYALSIK (UniProt Q9Y478) | -0.132 | -0.0459
52 | PRKCB_P05771_78+86_CHEFVTFSCPGADK (UniProt P05771) | -0.0197 | -0.0639
53 | PRPF8_Q6P2Q9_435_EHCPAGQPVK (UniProt Q6P2Q9) | 0.00907 | -0.012

Reference: the supplement of paper PMC12067093, “Discovery and optimisation of a covalent ligand for TRIM25 and its application to targeted protein ubiquitination” (Chemical Science, 2025)
